# Reference: patent US20030068675
# Residue numbers refer to the chain shown, from its start. Where a protein sequence is shown, tags need not be part of it.
# What was measured:
# Test in all cases: EMSA
# Conditions in all cases: purified recombinant protein; protein details: MBP fusion
# ZFP SBS#497 (synthetic) = system: T1, ZFP SBS#497 (synthetic)
# T1 sequence: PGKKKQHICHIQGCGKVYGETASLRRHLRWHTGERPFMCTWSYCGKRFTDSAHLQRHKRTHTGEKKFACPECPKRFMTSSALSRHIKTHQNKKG
# ZFP SBS#445 (synthetic) = system: T2, ZFP SBS#445 (synthetic)
# T2 sequence: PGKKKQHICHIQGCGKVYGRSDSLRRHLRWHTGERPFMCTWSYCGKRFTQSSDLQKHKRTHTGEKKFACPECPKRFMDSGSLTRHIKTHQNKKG
# ZFP SBS#326 (synthetic) = system: T3, ZFP SBS#326 (synthetic)
# T3 sequence: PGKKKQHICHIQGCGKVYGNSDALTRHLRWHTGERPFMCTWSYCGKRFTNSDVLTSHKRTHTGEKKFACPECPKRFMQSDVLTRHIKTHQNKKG
# ZFP SBS#215 (synthetic) = system: T4, ZFP SBS#215 (synthetic)
# T4 sequence: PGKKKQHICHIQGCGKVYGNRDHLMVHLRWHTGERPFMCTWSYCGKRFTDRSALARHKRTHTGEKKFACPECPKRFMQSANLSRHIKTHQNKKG
# ZFP SBS#347 (synthetic) = system: T5, ZFP SBS#347 (synthetic)
# T5 sequence: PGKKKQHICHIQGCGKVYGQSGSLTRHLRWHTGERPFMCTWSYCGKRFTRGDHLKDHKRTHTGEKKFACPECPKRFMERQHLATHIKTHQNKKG
# ZFP SBS#348 (synthetic) = system: T6, ZFP SBS#348 (synthetic)
# T6 sequence: T5 sequence with Q80D, A83R
# ZFP SBS#561 (synthetic) = system: T7, ZFP SBS#561 (synthetic)
# T7 sequence: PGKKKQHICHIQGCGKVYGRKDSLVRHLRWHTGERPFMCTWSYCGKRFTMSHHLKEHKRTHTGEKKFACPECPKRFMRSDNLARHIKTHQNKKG
# ZFP SBS#432 (synthetic) = system: T8, ZFP SBS#432 (synthetic)
# T8 sequence: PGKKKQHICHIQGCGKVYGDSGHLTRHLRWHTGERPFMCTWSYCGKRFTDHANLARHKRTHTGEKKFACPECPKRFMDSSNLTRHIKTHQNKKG
# ZFP SBS#580 (synthetic) = system: T9, ZFP SBS#580 (synthetic)
# T9 sequence: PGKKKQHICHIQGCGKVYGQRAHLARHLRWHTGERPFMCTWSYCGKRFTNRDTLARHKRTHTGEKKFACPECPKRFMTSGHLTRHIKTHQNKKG
# ZFP SBS#213 (synthetic) = system: T10, ZFP SBS#213 (synthetic)
# T10 sequence: T9 sequence with N50Q, R51S, D52S, T78Q, G80S, H81A, T83A
# ZFP SBS#214 (synthetic) = system: T11, ZFP SBS#214 (synthetic)
# T11 sequence: T9 sequence with N50Q, R51S, D52S, T78N, S79R, G80D, H81T, T83A
# ZFP SBS#201 (synthetic) = system: T12, ZFP SBS#201 (synthetic)
# T12 sequence: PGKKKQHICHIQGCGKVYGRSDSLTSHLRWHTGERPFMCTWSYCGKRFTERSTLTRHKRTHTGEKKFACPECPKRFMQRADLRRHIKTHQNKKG
# ZFP SBS#202 (synthetic) = system: T13, ZFP SBS#202 (synthetic)
# T13 sequence: T12 sequence with R83A
# ZFP SBS#203 (synthetic) = system: T14, ZFP SBS#203 (synthetic)
# T14 sequence: T12 sequence with D81T
# ZFP SBS#204 (synthetic) = system: T15, ZFP SBS#204 (synthetic)
# T15 sequence: T12 sequence with D81T, R83A
sequence,measurement,setting,value
GTTTGCGTC (double strand),Kd,ZFP SBS#497 (synthetic),> 1000 nM
GTCGCAGTGA (double strand),Kd,ZFP SBS#445 (synthetic),> 1000 nM
GTATCTGTT (double strand),Kd,ZFP SBS#326 (synthetic),> 1000 nM
GAAGTCTGT (double strand),Kd,ZFP SBS#215 (synthetic),> 1000 nM
TGCGGGGCAA (double strand),Kd,ZFP SBS#347 (synthetic),> 1000 nM
same,Kd,ZFP SBS#348 (synthetic),> 1000 nM
GAGTGTGTGA (double strand),Kd,ZFP SBS#561 (synthetic),> 1000 nM
GACGACGGC (double strand),Kd,ZFP SBS#432 (synthetic),> 1000 nM
GGTGTTGGAG (double strand),Kd,ZFP SBS#580 (synthetic),> 1000 nM
GTTGCTGGA (double strand),Kd,ZFP SBS#213 (synthetic),> 1000 nM
same,Kd,ZFP SBS#214 (synthetic),> 1000 nM
GCAGCCTTG (double strand),Kd,ZFP SBS#201 (synthetic),> 1000 nM
same,Kd,ZFP SBS#202 (synthetic),> 1000 nM
same,Kd,ZFP SBS#203 (synthetic),> 1000 nM
same,Kd,ZFP SBS#204 (synthetic),> 1000 nM
